# From paper PMC5996148
# Where “and” joins values, the source holds several entries; their conditions need not be identical. Equal entries are not always repeated. The list shows a part of the results.
# Legend:
# Assay in all cases: protein microarray (ProtoArray v5.0), streptavidin-Alexa Fluor 647
# Settings in all cases: 3'-biotin; 20 mM Tris (pH 7.5), 5 mM MgCl2, 100 mM KCl, 0.1% Tween-20, A/T-rich and random oligonucleotide blockers; temperature not stated; high values mean tight binding
# IGJ (human) = tested on: IGJ (human)
# IGKC (human) = tested on: IGKC (human)
# IGL@ (human) = tested on: IGL@ (human)
# IGLV2-14 (human) = tested on: IGLV2-14 (human)
# IGSF1 (human) = tested on: IGSF1 (human)
# IL17A (human) = tested on: IL17A (human)
# IL18BP (human) = tested on: IL18BP (human)
# IL1B (human) = tested on: IL1B (human)
# IL1F8 (human) = tested on: IL1F8 (human)
# IL1RN (human) = tested on: IL1RN (human)
sequence,measurement,setting,value
GGTGACAGGGGTATGGGGAGGGG [G4-2 biotinylated (Ct1)],binding signal,IGJ (human),-0.369 z-score
same,binding signal,IGKC (human),-0.366 z-score
same,binding signal,IGL@ (human),-0.398 z-score
same,binding signal,IGLV2-14 (human),-0.377 z-score and -0.358 z-score
same,binding signal,IGSF1 (human),-0.374 z-score
same,binding signal,IL17A (human),-0.385 z-score
same,binding signal,IL18BP (human),-0.376 z-score
same,binding signal,IL1B (human),-0.404 z-score
same,binding signal,IL1F8 (human),-0.396 z-score
same,binding signal,IL1RN (human),-0.389 z-score
